Test results: doi:10.1101/671792
These are yes or no findings as the source states them, for the method shown.

Protein sequences, listed by entry. Tags and fused reporters are not part of them. Residues count along the entry.
UniProt Q05513, residues 11-101: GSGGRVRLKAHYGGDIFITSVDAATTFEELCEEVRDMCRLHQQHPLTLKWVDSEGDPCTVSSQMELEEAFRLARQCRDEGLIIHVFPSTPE

Biological target: PKCζ PB1 domain, residues 11-101 (pelletation assay) (human) (UniProt Q05513)
Assay: sedimentation

In the case of “PKCζ PB1 domain, residues 11-101 (pelletation assay) (from UniProt Q05513 11-101) (domain or fragment)”, the binding is reported as “no binding”.
